Test results taken from ChEMBL document CHEMBL4118225, “Development, Optimization, and Structure-Activity Relationships of Covalent-Reversible JAK3 Inhibitors Based on a Tricyclic Imidazo[5,4- d]pyrrolo[2,3- b]pyridine Scaffold” (J Med Chem, 2018).

Amino acid sequences for entries named in this document (tags omitted). A change or cut given only in a name is not applied to a line headed by its entry.
UniProt O60674: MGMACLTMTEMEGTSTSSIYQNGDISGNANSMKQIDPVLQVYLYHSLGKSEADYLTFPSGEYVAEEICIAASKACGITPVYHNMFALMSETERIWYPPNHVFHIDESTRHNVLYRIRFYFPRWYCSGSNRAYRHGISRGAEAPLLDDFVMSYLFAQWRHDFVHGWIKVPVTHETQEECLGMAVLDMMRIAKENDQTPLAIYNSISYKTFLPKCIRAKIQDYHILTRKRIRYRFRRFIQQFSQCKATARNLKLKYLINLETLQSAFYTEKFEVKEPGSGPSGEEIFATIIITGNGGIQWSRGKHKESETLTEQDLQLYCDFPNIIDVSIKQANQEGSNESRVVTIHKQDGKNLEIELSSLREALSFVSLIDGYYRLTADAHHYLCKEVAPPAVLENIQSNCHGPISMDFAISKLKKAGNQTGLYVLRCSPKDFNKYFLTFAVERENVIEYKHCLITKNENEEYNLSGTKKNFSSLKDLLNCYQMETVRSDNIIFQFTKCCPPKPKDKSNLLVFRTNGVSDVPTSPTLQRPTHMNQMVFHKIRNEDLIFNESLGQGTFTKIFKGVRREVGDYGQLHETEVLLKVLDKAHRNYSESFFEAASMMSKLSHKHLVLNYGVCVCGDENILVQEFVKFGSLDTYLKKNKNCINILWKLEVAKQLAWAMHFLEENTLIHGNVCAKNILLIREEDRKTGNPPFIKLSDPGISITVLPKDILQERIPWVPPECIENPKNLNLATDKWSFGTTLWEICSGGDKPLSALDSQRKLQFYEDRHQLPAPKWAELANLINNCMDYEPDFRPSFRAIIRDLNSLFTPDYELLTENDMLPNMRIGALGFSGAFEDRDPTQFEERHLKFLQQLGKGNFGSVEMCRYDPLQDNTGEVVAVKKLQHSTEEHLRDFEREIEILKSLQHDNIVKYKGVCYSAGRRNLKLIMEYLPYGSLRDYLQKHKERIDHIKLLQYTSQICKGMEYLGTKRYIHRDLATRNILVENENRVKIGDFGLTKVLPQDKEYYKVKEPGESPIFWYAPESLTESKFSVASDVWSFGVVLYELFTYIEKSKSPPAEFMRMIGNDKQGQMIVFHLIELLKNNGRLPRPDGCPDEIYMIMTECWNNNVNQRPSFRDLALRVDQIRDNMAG

Key:
[1] = molecular target: Tyrosine-protein kinase JAK2 (Homo sapiens, UniProt O60674)
[2] = molecular target: T1, Tyrosine-protein kinase JAK3 (Homo sapiens, UniProt P52333)
T1 sequence (P52333 whole entry): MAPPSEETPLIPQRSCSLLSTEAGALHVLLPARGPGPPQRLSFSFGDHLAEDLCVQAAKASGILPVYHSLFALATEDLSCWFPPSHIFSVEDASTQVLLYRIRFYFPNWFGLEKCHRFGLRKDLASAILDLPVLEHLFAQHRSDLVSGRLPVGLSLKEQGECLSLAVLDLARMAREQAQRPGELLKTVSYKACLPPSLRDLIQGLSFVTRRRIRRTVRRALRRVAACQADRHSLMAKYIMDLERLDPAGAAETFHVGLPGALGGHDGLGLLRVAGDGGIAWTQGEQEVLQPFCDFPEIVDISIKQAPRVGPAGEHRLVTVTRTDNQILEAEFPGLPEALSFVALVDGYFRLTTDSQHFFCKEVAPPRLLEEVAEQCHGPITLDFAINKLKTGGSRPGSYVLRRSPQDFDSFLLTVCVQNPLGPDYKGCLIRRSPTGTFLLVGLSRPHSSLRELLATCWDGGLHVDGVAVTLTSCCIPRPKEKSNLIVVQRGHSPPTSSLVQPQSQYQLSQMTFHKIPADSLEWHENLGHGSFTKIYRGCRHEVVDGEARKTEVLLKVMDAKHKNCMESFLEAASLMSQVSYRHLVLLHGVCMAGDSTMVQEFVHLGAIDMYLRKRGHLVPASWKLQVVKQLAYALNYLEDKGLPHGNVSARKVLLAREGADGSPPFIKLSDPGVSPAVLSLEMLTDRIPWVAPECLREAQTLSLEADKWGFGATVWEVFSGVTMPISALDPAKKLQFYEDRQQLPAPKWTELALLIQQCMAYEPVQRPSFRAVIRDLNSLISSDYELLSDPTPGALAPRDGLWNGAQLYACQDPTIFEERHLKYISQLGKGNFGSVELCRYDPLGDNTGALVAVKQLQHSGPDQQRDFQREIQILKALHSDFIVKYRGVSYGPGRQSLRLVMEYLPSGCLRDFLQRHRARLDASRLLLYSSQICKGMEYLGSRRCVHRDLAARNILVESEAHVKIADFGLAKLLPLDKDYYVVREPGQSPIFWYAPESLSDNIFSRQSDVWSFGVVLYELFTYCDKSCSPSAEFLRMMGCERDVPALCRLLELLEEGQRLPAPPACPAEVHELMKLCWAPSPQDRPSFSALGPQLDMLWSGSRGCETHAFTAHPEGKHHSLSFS

[3] = molecular target: T1, Tyrosine-protein kinase JAK3; assay: Inhibition of human JAK3 using GEEEEYFELVKKKK as substrate in presence of 200 uM [gamma33P]ATP by radiometric method
[4] = molecular target: T1, Tyrosine-protein kinase JAK3; remark: listed apart in the source

| IC50 [1] [nM] | Compound | IC50 [2] [nM] | IC50 [3] [nM] | EC50 [4] [nM] |
| --- | --- | --- | --- | --- |
| 578 | CC(C)(O)C(=O)N1CCN(c2ccc(C(F)(F)F)c(C3=C(c4c[nH]c5ccccc45)C(=O)NC3=O)c2)CC1 |  |  |  |
|  | CN(C)C(=O)C(C#N)=Cc1ccc(-c2nc3cnc4[nH]ccc4c3n2C2CCCCC2)o1 | 9 | 2 | 237 |
